This passage reports binding results from doi:10.1101/2024.01.29.577837.

Sequences of proteins named here, by UniProt entry; tags and fusion partners are left off. Residues count along the entry.
UniProt Q13705, residues 19-512: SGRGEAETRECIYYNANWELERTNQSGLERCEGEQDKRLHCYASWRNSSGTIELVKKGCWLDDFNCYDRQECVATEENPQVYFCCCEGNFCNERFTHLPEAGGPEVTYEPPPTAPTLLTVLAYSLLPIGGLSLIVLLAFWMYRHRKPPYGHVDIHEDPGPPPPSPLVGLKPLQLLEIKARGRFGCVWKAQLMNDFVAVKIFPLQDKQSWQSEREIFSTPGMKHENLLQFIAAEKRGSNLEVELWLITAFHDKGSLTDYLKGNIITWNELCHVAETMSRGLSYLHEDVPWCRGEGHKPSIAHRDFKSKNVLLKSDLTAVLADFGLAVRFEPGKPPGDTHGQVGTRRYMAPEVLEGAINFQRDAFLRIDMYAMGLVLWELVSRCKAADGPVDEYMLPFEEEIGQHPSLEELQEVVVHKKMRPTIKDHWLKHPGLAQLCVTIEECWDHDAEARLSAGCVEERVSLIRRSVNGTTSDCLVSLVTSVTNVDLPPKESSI

Changes are numbered by the printed parent chain. These are yes or no findings as the source states them, for the method shown. Binding seen in cells or lysates may run through a third protein. Some binding calls cover weakened binding; strength is not graded here. Sequences can lack the tags named with a protein.

For experiment [1], the target named is T1, myc-human ACVR1 (human) (UniProt Q04771).
T1 sequence: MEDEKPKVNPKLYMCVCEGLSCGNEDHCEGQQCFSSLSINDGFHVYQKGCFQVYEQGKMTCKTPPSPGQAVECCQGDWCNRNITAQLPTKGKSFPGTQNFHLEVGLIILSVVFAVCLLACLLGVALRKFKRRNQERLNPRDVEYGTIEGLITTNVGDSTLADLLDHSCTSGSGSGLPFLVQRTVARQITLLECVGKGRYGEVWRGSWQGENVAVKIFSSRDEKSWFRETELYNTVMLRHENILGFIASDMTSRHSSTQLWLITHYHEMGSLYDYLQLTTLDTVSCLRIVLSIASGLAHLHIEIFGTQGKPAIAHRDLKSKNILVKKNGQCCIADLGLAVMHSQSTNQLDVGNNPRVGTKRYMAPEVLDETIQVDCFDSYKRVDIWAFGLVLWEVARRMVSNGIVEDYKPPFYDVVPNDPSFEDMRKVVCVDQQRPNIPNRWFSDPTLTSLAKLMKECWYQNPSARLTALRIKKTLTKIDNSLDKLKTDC
The experiment is described as follows: co-IP.

Experiment [2] concerns the target T2, myc-human ACVR1.R206H (human) (UniProt Q04771).
T2 sequence: T1 sequence with R186H
Description: co-IP.

On to “HA-human ACVR2B (from UniProt Q13705 19-512) (receptor)”, for which the binding result in experiment [1] and in experiment [2] was “binds” each time.
